Structures were worked out from names or drawings and are uncertain.
Tests used:
[1] = molecular target: recombinant human ERα ligand binding domain (LBD) (Homo sapiens, UniProt P03372); assay: ERα binding assay (LanthaScreen TR-FRET competition); conditions: read-out: ERa binding, Mean, Table S4 source data
[2] = molecular target: ERα (Homo sapiens, UniProt P03372); assay: ERα high throughput imaging degradation assay in MCF7 cells; type: cell-based
Procedure: Cells were fixed, permeabilised and stained with anti-ERα (rabbit clone SP1, Thermo) and anti-PR (mouse clone PgR 636, Dako) antibodies followed by secondary AlexaFluor 594 goat anti-rabbit and AlexaFluor 488 goat anti-mouse IgG antibodies. Imaging was using the Thermo Cellinsight scanner and average fluorescence intensity was analysed using Genedata.

Sequences of proteins named here, by UniProt entry; tags and fusion partners are left off. Residues count along the entry.
UniProt P03372, whole entry: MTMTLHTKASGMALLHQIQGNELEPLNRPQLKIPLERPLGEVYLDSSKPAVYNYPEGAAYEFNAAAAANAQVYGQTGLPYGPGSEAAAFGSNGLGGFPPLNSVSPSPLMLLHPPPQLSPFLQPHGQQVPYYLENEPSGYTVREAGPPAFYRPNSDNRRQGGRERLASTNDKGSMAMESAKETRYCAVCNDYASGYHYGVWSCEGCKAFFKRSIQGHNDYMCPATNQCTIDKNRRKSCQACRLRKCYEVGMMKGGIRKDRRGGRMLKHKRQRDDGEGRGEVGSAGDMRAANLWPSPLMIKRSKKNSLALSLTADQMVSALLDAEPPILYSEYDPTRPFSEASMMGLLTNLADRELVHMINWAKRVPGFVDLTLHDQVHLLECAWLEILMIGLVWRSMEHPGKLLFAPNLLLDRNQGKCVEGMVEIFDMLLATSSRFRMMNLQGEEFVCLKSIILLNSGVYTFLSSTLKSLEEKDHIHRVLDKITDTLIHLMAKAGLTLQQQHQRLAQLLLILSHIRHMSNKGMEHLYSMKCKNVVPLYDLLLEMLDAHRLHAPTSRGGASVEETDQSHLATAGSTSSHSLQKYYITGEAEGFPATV
UniProt P03372, 311-547 limits assumed: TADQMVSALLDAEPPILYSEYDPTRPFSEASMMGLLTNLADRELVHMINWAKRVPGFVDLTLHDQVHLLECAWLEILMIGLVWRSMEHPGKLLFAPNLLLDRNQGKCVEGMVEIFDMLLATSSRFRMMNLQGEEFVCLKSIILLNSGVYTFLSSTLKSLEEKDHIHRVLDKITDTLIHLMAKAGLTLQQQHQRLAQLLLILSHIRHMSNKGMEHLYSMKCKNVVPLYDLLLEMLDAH

## Cc1ncsc1-c1ccc(CNC(=O)[C@@H]2C[C@@H](O)CN2C(=O)[C@@H](NC(=O)COCC2CC2COCCOc2cc(F)c([C@@H]3c4[nH]c5ccccc5c4C[C@@H](C)N3CC(C)(C)F)c(F)c2)C(C)(C)C)cc1 (single isomer, unassigned) [11]
[1]
  IC50: 1 nM
[2]; Table S4 source data
  ERa degradation, Dmax (%): 96%
[2]; read-out: ERα imaging degradation DC50, MCF7 cells, 20 to 24 hours
  DC50: 0.5 nM

— PMC11091220, “Metabolism-driven in vitro/in vivo disconnect of an oral ERɑ VHL-PROTAC” (Communications Biology, 2024)
